Data: patent US8273759B2, “Fungicide heterocyclyl-pyrimidinyl-amino derivatives” (Bayer Cropscience AG, priority 2007, dated 2012)
Some entries share one result that the patent states for a list of compounds. At least one compound was matched to its structure with a doubt left.

What was measured:
Pyrenophora teres = experiment: In vivo test on Pyrenophora teres (barley net blotch); conditions: 500 ppm; barley plants sprayed 24 hours before contamination; grading 12 days after contamination
Botrytis cinerea = experiment: In vivo test on Botrytis cinerea (grey mould); conditions: 500 ppm; gherkin plants sprayed 24 hours before contamination; grading 5/7 days after contamination
Alternaria brassicae = experiment: In vivo test on Alternaria brassicae (leaf spot of crucifers); conditions: 500 ppm; radish plants sprayed 24 hours before contamination; grading 6 to 7 days after contamination
Peronospora parasitica = experiment: In vivo test on Peronospora parasitica (crucifer downy mildew); conditions: 500 ppm; cabbage plants sprayed 24 hours before contamination; grading 5 days after contamination
Sphaerotheca fuliginea = experiment: In vivo test on Sphaerotheca fuliginea (cucurbits powdery mildew); conditions: 500 ppm; gherkin plants sprayed 24 hours before contamination; grading 12 days after contamination
[1] = tested on: Mycosphaerella graminicola; experiment: In vivo test on Mycosphaerella graminicola (wheat leaf spot); conditions: 500 ppm; wheat plants sprayed 24 hours before contamination; grading 21 to 28 days after contamination
Puccinia recondita = experiment: In vivo test on Puccinia recondita (brown rust); conditions: 500 ppm; wheat plants sprayed 24 hours before contamination; grading 10 days after contamination

Compound	protection (good, at least 70%) (Pyrenophora teres)	protection (good, at least 70%, or total) (Botrytis cinerea)	protection (good, at least 70%, or total) (Peronospora parasitica)	also measured
CC(C)C(C)Nc1cc(-c2ccnc(Nc3ccnc(Cl)c3)n2)ccn1 (stereo not drawn) [Compound 10]	at least 70%			
Clc1cc(Nc2nccc(-c3ccnc(NC4CCC4)c3)n2)ccn1 [Compound 11]	at least 70%	at least 70%	at least 70%	good protection (at least 70%) (Alternaria brassicae): at least 70%
CCCC(C)Nc1cc(-c2ccnc(Nc3ccnc(Cl)c3)n2)ccn1 (stereo not drawn) [Compound 12]	at least 70%	at least 70%		
CCC(CC)Nc1cc(-c2ccnc(Nc3ccnc(Cl)c3)n2)ccn1 [Compound 13]	at least 70%	at least 70%	at least 70%	protection (good, at least 70%, or total), % of efficacy (Sphaerotheca fuliginea): at least 70%; good protection (at least 70%) (Alternaria brassicae): at least 70%; protection (good, at least 70%, or total), % of efficacy [1]: at least 70%
CCCC(C)Nc1cc(Nc2nccc(-c3ccnc(NC(C)CCC)c3)n2)ccn1 (stereo not drawn) [Compound 20]			at least 70%	
CCC(CC)Nc1cc(Nc2nccc(-c3ccnc(NC(CC)CC)c3)n2)ccn1 [Compound 21]	at least 70%	at least 70%	at least 70%	protection (good, at least 70%, or total), % of efficacy [1]: at least 70%
CC(CN(C)C)Nc1cc(-c2ccnc(Nc3cccc(Cl)n3)n2)ccn1 (stereo not drawn) [Compound 28]			at least 70%	
COCC(C)Nc1cc(-c2ccnc(Nc3ccc(OC)nc3)n2)ccn1 (stereo not drawn) [Compound 38]	at least 70%			protection (good, at least 70%, or total) (Puccinia recondita): at least 70%
COCC(C)Nc1cc(-c2ccnc(Nc3ccnc(C(F)(F)F)c3)n2)ccn1 (stereo not drawn) [Compound 43]	at least 70%	at least 70%		good protection (at least 70%) (Alternaria brassicae): at least 70%
COC(C)(C)CNc1cc(-c2ccnc(Nc3ccnc(Cl)c3)n2)ccn1 [Compound 44]	at least 70%	at least 70%		
COCCCNc1cc(-c2ccnc(Nc3ccc(OC)nc3)n2)ccn1 [Compound 50]		at least 70%		
CCOCCNc1cc(-c2ccnc(Nc3ccc(OC)nc3)n2)ccn1 [Compound 51]	at least 70%	at least 70%		protection (good, at least 70%, or total), % of efficacy [1]: at least 70%
COc1ccc(Nc2nccc(-c3ccnc(NCCC#N)c3)n2)cn1 [Compound 60]	at least 70%			
C=CCCNc1cc(-c2ccnc(Nc3ccc(OC)nc3)n2)ccn1 [Compound 76]	at least 70%	at least 70%		
